Experimental findings from the supplement of paper PMC12595434, “Development of retinoid nuclear receptor pathway antagonists through targeting aldehyde dehydrogenase 1A3” (iScience, 2025) are described below.

By UniProt entry, the sequences of proteins in these tests, tags left out. Where a name states a change or a piece, a line headed by the entry shows the natural chain unless it says otherwise.
UniProt P27708: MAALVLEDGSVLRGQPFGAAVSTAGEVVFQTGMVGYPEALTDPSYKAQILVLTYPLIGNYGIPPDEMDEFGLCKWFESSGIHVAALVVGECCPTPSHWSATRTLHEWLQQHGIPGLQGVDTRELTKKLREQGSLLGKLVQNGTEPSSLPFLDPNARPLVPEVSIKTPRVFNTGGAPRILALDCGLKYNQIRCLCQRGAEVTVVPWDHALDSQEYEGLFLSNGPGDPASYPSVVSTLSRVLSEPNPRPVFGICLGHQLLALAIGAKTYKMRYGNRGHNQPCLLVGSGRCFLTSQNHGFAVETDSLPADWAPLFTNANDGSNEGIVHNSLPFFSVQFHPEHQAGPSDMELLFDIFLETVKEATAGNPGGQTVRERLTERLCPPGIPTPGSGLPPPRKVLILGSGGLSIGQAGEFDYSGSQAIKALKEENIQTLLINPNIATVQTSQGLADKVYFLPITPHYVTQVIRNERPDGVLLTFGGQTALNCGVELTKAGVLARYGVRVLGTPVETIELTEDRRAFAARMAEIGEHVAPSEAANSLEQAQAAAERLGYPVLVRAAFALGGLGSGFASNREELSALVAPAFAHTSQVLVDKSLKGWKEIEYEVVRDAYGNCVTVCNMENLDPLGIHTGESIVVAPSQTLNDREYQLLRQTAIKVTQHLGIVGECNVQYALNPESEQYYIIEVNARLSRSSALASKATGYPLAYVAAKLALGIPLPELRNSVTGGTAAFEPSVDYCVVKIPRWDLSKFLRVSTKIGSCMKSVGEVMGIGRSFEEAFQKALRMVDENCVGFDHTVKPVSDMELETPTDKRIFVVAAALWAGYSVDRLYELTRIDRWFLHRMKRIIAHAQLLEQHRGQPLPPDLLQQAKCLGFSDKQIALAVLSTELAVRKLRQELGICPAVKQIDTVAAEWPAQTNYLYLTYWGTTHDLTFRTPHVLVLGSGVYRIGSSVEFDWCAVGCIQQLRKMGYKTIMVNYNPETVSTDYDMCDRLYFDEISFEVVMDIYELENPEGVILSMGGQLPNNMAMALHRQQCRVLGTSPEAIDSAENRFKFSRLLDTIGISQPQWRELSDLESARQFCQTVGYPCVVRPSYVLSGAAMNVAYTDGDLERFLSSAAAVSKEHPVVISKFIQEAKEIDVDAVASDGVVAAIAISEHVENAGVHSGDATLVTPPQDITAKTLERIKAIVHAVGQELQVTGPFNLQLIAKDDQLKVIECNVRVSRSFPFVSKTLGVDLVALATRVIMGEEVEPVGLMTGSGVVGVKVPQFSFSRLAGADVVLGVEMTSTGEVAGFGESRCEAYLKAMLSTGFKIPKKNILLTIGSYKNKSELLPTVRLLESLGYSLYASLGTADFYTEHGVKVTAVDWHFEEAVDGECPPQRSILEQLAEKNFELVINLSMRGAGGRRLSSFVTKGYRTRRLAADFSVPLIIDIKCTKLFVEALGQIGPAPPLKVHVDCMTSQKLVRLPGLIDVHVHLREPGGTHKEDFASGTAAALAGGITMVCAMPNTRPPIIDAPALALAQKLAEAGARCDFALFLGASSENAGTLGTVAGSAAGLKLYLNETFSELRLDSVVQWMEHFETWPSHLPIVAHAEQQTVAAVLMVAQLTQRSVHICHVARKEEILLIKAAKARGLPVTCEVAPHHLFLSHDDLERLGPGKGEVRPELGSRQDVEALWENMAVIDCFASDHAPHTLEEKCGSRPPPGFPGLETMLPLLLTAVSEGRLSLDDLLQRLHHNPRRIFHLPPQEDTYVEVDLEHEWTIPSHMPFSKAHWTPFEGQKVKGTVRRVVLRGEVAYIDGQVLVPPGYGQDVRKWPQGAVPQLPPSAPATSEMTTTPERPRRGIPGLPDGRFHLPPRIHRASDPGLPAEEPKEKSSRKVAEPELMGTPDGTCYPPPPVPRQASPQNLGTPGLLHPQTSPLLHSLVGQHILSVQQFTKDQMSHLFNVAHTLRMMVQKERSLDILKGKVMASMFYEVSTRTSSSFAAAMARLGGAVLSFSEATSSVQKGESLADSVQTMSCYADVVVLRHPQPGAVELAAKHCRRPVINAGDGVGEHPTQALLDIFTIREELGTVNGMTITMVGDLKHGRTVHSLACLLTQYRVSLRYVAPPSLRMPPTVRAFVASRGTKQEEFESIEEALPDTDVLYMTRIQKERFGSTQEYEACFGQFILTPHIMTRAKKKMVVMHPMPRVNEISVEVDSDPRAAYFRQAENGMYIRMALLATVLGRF
UniProt P21964: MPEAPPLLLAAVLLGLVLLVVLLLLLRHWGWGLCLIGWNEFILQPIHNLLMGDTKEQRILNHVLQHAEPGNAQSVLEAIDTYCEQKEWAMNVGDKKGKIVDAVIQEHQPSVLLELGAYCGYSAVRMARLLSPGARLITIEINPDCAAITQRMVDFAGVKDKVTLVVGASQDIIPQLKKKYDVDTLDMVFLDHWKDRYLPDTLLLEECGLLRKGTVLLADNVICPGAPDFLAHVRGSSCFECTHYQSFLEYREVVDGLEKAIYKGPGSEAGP
UniProt P27448: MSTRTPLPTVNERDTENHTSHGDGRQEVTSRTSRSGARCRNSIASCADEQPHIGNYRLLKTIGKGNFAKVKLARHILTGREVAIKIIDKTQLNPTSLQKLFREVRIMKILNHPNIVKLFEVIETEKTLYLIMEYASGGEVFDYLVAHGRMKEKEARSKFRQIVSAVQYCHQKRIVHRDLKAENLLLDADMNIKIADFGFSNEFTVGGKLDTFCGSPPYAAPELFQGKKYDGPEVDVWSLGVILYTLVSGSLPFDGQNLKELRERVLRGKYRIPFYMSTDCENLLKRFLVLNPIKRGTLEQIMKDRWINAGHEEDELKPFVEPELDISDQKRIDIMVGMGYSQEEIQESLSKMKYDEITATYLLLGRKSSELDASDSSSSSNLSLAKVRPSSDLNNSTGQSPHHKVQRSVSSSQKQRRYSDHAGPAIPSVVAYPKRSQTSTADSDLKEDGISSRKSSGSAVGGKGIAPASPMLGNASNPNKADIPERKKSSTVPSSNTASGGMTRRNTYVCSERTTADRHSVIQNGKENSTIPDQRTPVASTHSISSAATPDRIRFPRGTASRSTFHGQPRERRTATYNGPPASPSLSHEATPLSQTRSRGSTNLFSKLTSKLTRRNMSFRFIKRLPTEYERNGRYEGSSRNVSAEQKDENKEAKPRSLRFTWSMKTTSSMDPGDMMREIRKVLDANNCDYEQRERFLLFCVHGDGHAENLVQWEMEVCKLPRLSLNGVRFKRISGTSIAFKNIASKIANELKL
UniProt P33908: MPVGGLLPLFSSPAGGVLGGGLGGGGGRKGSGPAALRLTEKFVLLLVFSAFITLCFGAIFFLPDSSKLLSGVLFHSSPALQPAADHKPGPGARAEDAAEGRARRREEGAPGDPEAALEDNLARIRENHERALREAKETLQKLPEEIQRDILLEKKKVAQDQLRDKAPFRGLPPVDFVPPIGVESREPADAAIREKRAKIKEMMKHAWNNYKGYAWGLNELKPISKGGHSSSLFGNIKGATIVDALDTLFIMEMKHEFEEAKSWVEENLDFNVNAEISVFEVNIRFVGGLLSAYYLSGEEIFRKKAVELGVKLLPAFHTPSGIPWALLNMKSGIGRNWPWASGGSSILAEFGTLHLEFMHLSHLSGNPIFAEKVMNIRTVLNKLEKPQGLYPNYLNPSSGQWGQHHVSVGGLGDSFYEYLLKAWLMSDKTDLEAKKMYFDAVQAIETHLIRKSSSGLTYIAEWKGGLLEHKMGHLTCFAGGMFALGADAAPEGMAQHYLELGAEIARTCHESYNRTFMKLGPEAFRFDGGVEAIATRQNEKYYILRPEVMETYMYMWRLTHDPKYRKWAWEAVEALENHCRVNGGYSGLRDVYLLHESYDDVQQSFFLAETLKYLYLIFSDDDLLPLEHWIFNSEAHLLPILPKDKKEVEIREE
UniProt P33764: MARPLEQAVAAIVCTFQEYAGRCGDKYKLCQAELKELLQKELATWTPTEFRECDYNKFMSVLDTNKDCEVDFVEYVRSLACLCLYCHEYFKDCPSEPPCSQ
UniProt P28482, whole entry: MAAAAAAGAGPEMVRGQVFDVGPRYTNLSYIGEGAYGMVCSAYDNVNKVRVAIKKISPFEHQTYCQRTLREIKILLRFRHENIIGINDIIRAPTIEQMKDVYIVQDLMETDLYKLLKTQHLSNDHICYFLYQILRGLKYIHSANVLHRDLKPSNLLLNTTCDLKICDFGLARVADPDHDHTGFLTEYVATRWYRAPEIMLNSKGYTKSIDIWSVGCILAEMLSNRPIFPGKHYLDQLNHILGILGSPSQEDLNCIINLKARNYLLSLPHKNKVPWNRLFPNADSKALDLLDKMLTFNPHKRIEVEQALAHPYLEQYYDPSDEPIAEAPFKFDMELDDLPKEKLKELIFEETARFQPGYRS
UniProt P27987: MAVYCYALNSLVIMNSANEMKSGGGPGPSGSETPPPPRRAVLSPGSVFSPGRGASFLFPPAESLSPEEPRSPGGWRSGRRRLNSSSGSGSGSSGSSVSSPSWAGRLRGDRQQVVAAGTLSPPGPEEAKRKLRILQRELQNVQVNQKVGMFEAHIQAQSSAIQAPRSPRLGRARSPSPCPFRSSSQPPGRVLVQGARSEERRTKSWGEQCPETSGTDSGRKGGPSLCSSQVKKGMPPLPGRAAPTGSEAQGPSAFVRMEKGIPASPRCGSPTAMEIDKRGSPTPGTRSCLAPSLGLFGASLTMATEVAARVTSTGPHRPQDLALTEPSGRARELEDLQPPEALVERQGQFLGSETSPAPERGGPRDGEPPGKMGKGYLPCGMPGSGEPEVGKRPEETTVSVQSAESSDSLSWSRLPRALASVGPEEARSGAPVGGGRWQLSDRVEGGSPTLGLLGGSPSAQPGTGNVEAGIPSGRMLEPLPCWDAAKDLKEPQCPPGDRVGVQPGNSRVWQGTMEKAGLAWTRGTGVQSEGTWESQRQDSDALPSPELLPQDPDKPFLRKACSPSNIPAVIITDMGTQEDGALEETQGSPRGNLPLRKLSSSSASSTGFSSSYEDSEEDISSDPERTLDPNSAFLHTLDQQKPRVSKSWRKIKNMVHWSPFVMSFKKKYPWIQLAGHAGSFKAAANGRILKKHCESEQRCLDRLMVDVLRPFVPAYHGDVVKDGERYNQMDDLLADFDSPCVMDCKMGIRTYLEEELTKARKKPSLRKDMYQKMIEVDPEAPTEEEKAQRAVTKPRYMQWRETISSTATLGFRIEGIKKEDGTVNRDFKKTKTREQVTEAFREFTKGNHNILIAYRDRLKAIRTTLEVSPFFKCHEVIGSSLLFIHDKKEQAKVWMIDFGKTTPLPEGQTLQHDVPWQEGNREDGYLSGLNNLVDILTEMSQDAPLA
UniProt P23634: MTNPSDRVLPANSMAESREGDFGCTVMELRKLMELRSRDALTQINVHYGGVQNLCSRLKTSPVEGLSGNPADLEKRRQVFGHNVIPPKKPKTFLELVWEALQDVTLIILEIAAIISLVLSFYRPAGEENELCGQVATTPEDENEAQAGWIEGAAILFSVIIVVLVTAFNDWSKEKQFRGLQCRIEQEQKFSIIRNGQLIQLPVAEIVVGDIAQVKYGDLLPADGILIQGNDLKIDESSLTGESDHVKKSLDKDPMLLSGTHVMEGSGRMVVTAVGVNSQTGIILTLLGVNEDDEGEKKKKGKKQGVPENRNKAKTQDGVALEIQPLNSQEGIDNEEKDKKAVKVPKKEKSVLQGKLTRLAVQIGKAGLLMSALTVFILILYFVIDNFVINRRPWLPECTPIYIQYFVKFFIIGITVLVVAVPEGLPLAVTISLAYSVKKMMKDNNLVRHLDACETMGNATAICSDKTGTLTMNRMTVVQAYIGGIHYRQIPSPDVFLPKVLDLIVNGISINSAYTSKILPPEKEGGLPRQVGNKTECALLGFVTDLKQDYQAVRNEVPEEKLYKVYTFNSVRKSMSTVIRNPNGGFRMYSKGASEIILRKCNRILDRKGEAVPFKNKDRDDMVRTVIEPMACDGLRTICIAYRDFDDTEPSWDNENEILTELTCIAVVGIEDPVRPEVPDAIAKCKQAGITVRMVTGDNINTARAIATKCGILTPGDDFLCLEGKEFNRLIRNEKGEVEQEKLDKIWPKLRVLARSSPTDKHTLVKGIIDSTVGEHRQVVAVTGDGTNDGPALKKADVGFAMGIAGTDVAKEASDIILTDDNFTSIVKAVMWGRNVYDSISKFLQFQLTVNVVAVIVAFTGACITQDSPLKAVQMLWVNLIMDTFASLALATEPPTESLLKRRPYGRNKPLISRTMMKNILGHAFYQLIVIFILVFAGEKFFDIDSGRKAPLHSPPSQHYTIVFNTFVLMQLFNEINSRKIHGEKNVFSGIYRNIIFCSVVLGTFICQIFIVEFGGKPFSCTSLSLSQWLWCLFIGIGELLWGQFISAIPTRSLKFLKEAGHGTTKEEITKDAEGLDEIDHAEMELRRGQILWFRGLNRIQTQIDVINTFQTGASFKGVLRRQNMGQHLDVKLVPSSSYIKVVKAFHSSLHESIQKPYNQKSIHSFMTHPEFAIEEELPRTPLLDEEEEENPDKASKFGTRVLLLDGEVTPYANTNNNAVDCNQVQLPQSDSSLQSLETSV

Compound in this assay: CCc1cnccc1C(=O)Nc1cc2c(cc1F)NC(=O)CC2
The assay can be described thus: melting temperature shift (DMSO Tm minus MBE1-treated Tm) in cellular thermal proteome profiling; higher = less thermal stabilization by MBE1 (negative = stabilized by MBE1). As to conditions: A375.

Some of the results follow. The data scatter; read single values as rough.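 Many melting curves are irregular; where none melted, Tm was taken as 64 °C.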

RPL12 (UniProt P30050): the melting temperature shift (MBE1 concentration: 100 nM) was -0.739 °C and the melting temperature shift (MBE1 concentration: 1 uM) came out at 0.855 °C.
For CAD (UniProt P27708) the same measures were 0.623 °C and 0.122 °C.
For UniProt P24468, in that order: 0.714 °C and 1.15 °C.
For ACSL1 (UniProt P33121), in that order: 0.159 °C and -0.0977 °C.
Regarding ATP5C1 (UniProt P36542), the melting temperature shift was -0.958 °C (MBE1 concentration: 100 nM) and -0.853 °C (MBE1 concentration: 1 uM).
For UniProt P22413, in that order: -1.95 °C and 2.28 °C.
For PRDX3 (UniProt P30048), the melting temperature shift by setting is: (MBE1 concentration: 100 nM) -0.238 °C; (MBE1 concentration: 1 uM) -0.256 °C.
Turning to FBL (UniProt P22087), the melting temperature shift (MBE1 concentration: 100 nM) was -0.329 °C and the melting temperature shift (MBE1 concentration: 1 uM) is -0.127 °C.
For the target MCC (UniProt P23508), the melting temperature shift reads like this: (MBE1 concentration: 100 nM) -0.397 °C; (MBE1 concentration: 1 uM) -0.0183 °C.
For GTF2E2 (UniProt P29084) the same measures were 0.273 °C and -0.263 °C.
For SERPINB6 (UniProt P35237), in that order: -0.959 °C and 0.342 °C.
For BMPR1A (UniProt P36894), in that order: -1.16 °C and -0.104 °C.
In the case of COMT (UniProt P21964), the melting temperature shift reads like this: (MBE1 concentration: 100 nM) 0.818 °C; (MBE1 concentration: 1 uM) 1.22 °C.
For GART (UniProt P22102) the same measures were 1.09 °C and 0.727 °C.
In the case of PDIA3 (UniProt P30101), the melting temperature shift is -1.05 °C (MBE1 concentration: 100 nM) and -0.402 °C (MBE1 concentration: 1 uM).
For ECHS1 (UniProt P30084) the same measures were -0.429 °C and -0.443 °C.
As for MPI (UniProt P34949), the melting temperature shift runs as follows: (MBE1 concentration: 100 nM) 1.45 °C; (MBE1 concentration: 1 uM) 0.684 °C.
For MCM3 (UniProt P25205) the same measures were -0.805 °C and 0.299 °C.
For UniProt P21980, in that order: -0.409 °C and 0.0546 °C.
For ATP6V1C1 (UniProt P21283), in that order: 0.397 °C and 0.0305 °C.
As for MYH9 (UniProt P35579), the melting temperature shift was -0.402 °C (MBE1 concentration: 100 nM) and 0.239 °C (MBE1 concentration: 1 uM).
For RPS3 (UniProt P23396), the melting temperature shift (MBE1 concentration: 100 nM) is -0.714 °C and the melting temperature shift (MBE1 concentration: 1 uM) was -0.177 °C.
Turning to UniProt P22676, the melting temperature shift (MBE1 concentration: 100 nM) was -0.0738 °C and the melting temperature shift (MBE1 concentration: 1 uM) is -0.872 °C.
On to ACVR1B (UniProt P36896), for which the melting temperature shift is -2.76 °C (MBE1 concentration: 100 nM) and 0 °C (MBE1 concentration: 1 uM).
Regarding MARK3 (UniProt P27448), the melting temperature shift (MBE1 concentration: 100 nM) is -2.25 °C and the melting temperature shift (MBE1 concentration: 1 uM) was -0.629 °C.
For EIF4B (UniProt P23588) the same measures were -1.94 °C and -2.44 °C.
Regarding SLC7A1 (UniProt P30825), the melting temperature shift by setting is: (MBE1 concentration: 100 nM) -2.8 °C; (MBE1 concentration: 1 uM) -0.483 °C.
For UniProt P26232 the same measures were -0.402 °C and 0.228 °C.
For MAN1A1 (UniProt P33908), in that order: -0.385 °C and -0.452 °C.
For RRM1 (UniProt P23921) the same measures were -0.282 °C and 0.208 °C.
As for UniProt P35226, the melting temperature shift runs as follows: (MBE1 concentration: 100 nM) -0.325 °C; (MBE1 concentration: 1 uM) -0.772 °C.
For UniProt P35609 the same measures were -7.58 °C and -4.63 °C.
For AKT2 (UniProt P31751) the same measures were 0.47 °C and 0.446 °C.
In the case of INPP5B (UniProt P32019), the melting temperature shift is 0.055 °C (MBE1 concentration: 100 nM) and -0.107 °C (MBE1 concentration: 1 uM).
For UniProt P35711, in that order: 0.885 °C and -0.751 °C.
For NMT1 (UniProt P30419) the same measures were -0.664 °C and 0.0604 °C.
For FECH (UniProt P22830), in that order: -0.926 °C and 0.421 °C.
Turning to NDUFS1 (UniProt P28331), the melting temperature shift (MBE1 concentration: 100 nM) was determined as 0.641 °C and the melting temperature shift (MBE1 concentration: 1 uM) amounted to 0.525 °C.
As for PRDX5 (UniProt P30044), the melting temperature shift is, setting by setting: (MBE1 concentration: 100 nM) -1.64 °C; (MBE1 concentration: 1 uM) -1.51 °C.
On to UniProt P33764, for which the melting temperature shift runs as follows: (MBE1 concentration: 100 nM) -0.598 °C; (MBE1 concentration: 1 uM) 0.305 °C.
For UniProt P28482 the same measures were -0.434 °C and 0.0794 °C.
For UniProt P27987, in that order: -1.01 °C and -0.77 °C.
For DNAJB1 (UniProt P25685), in that order: 0.275 °C and -0.0672 °C.
Take POLR2A (UniProt P24928): the melting temperature shift is 0.653 °C (MBE1 concentration: 100 nM) and -0.238 °C (MBE1 concentration: 1 uM).
For ATP2B4 (UniProt P23634) the same measures were -1.29 °C and 0.885 °C.
For UniProt P32455 the same measures were 3.08 °C and 0.751 °C.
For ALDH4A1 (UniProt P30038), in that order: -0.177 °C and -0.69 °C.
